# Measurements taken from the supplement of paper PMC4604168 (melanoma cell lines).
# The other results are listed elsewhere or left out. Single values are uncertain, as repeats are few or missing.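 Cells were imaged in 1,536-well plates, and nuclei stained with an antibody against cleaved PARP were counted against all DNA-stained nuclei to give the apoptosis fraction. Screening doses were chosen to leave most cells alive, and resting and induced cleaved-PARP levels differ strongly between cell lines.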
# System: WM451Lu
# Assay: cleaved PARP positive nuclei fraction relative to DMSO control; melanoma cells; higher = more apoptosis
# Conditions: library dose: low library concentration; 72 h
row,SMILES,cleaved PARP positive nuclei fraction [%]
1,"C[C@@H](N)c1ccc(C(=O)Nc2ccnc3[nH]ccc23)cc1 + Cc1cc([N+](=O)[O-])ccc1NS(=O)(=O)c1cc(Cl)ccc1Cl [FH535] (first compound 0.4 µM, partner dose 1 µM)",94.1
2,"CS(=O)(=O)c1ccc(C(=O)Nc2ccc(Cl)c(-c3ccccn3)c2)c(Cl)c1 [vismodegib] + O=S(=O)(c1ccccc1)N(CC(F)(F)F)c1ccc(C(O)(C(F)(F)F)C(F)(F)F)cc1 [T0901317] (first compound 1 µM, partner dose 1.4 µM)",43.7
3,"CCN(CC)CCNC(=O)c1c(C)[nH]c(/C=C2\C(=O)Nc3ccc(F)cc32)c1C [sunitinib] + COc1cc(N2CCC(N3CCN(C)CC3)CC2)ccc1Nc1ncc(Cl)c(Nc2ccccc2S(=O)(=O)C(C)C)n1 [NVP-TAE684] (first compound 0.4 µM, partner dose 0.08 µM)",51.1
4,"CC1(C)CCC(c2ccc(Cl)cc2)=C(CN2CCN(c3ccc(C(=O)NS(=O)(=O)c4ccc(N[C@H](CCN5CCOCC5)CSc5ccccc5)c(S(=O)(=O)C(F)(F)F)c4)cc3)CC2)C1 + CC(C)CCN1c2nc(Nc3cc(F)c(O)c(F)c3)ncc2N(C)C(=O)C1C [BID1870] (first compound 0.4 µM, partner dose 0.2 µM)",78.3
5,"C[C@@H](N)c1ccc(C(=O)Nc2ccnc3[nH]ccc23)cc1 + CN(NC(=O)CC(=O)NN(C)C(=S)c1ccccc1)C(=S)c1ccccc1 [STA4783] (first compound 0.4 µM, partner dose 0.006 µM)",250
6,"NC1(c2ccc(-c3nc4ccn5c(=O)[nH]nc5c4cc3-c3ccccc3)cc2)CCC1 + COc1cc(N2CCC(N3CCN(C)CC3)CC2)ccc1Nc1ncc(Cl)c(Nc2ccccc2S(=O)(=O)C(C)C)n1 [NVP-TAE684] (first compound 0.4 µM, partner dose 0.08 µM)",47.6
7,"NC(=O)c1ccc(N(C(N)=O)c2c(F)cccc2F)nc1-c1ccc(F)cc1F + CCCCCCCCCCCC1=C(O)C(=O)C=C(O)C1=O [Embelin] (first compound 0.4 µM, partner dose 1.2 µM)",129
8,"CS(=O)(=O)c1ccc(C(=O)Nc2ccc(Cl)c(-c3ccccn3)c2)c(Cl)c1 [vismodegib] + NCC(=O)Nc1ccc(-n2nc(C(F)(F)F)cc2-c2ccc3c(ccc4ccccc43)c2)cc1 [OSU03012] (first compound 1 µM, partner dose 1 µM)",237
9,"NC1(c2ccc(-c3nc4ccn5c(=O)[nH]nc5c4cc3-c3ccccc3)cc2)CCC1 + O=S(=O)(c1ccccc1)N(CC(F)(F)F)c1ccc(C(O)(C(F)(F)F)C(F)(F)F)cc1 [T0901317] (first compound 0.4 µM, partner dose 1.4 µM)",27.3
10,"NC(=O)c1ccc(N(C(N)=O)c2c(F)cccc2F)nc1-c1ccc(F)cc1F + CC(C)(C)c1cnc(CSc2cnc(NC(=O)C3CCNCC3)s2)o1 [SNS-032] (first compound 0.4 µM, partner dose 0.01 µM)",24
11,"NC(=O)c1ccc(N(C(N)=O)c2c(F)cccc2F)nc1-c1ccc(F)cc1F + CO[C@@H]1[C@H](N(C)C(=O)c2ccccc2)C[C@H]2O[C@]1(C)n1c3ccccc3c3c4c(c5c6ccccc6n2c5c31)C(=O)NC4 [Midostaurin] (first compound 0.4 µM, partner dose 0.08 µM)",99.6
12,"Cn1cnc2c(F)c(Nc3ccc(Br)cc3Cl)c(C(=O)NOCCO)cc21 [selumetinib] + COc1cc2c(Oc3ccc4[nH]c(C)cc4c3F)ncnc2cc1OCCCN1CCCC1 [cediranib] (first compound 0.015 µM, partner dose 0.4 µM)",60.1
13,"C[C@]1(O)C[C@@H](c2nc(-c3ccc4ccc(-c5ccccc5)nc4c3)c3c(N)nccn32)C1 + c1cc(-c2cnn3cc(-c4ccc(OCCN5CCCCC5)cc4)cnc23)ccn1 [Dorsomorphin] (first compound 0.4 µM, partner dose 0.4 µM)",521
14,"CC1(C)CCC(c2ccc(Cl)cc2)=C(CN2CCN(c3ccc(C(=O)NS(=O)(=O)c4ccc(N[C@H](CCN5CCOCC5)CSc5ccccc5)c(S(=O)(=O)C(F)(F)F)c4)cc3)CC2)C1 + NCC(=O)Nc1ccc(-n2nc(C(F)(F)F)cc2-c2ccc3c(ccc4ccccc43)c2)cc1 [OSU03012] (first compound 0.4 µM, partner dose 1 µM)",588
